Here are results for 94 sequences from the supplement of paper PMC3334620.

Over roughly 33,000 sequences, “E-score (-0.5 to 0.5)” has its median near -0.016; the highest 2% begin near 0.3. Some of the results follow.

This assay deals with T1, Yer184c (UniProt P39961).
T1 sequence: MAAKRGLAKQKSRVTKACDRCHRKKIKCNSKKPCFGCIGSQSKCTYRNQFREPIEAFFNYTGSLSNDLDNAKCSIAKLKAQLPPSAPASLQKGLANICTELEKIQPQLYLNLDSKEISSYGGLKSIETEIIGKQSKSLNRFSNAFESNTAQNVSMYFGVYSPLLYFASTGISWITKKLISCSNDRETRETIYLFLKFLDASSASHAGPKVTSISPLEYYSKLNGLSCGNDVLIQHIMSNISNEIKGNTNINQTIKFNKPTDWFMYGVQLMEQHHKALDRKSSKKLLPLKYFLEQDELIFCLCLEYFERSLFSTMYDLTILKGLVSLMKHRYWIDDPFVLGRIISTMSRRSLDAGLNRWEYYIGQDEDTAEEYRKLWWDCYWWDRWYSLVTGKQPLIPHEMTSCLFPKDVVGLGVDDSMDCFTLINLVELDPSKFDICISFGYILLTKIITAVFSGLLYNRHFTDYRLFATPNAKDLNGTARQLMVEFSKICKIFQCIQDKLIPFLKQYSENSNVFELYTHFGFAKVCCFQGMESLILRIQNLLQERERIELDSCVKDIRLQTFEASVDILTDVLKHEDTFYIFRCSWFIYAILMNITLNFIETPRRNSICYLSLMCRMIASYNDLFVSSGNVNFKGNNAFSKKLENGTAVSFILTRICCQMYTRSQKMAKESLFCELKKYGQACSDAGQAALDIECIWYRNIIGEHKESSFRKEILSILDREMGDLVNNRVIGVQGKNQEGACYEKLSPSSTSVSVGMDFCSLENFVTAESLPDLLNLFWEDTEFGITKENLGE
In words: PBM E-score (8-mer binding enrichment) (E-score (-0.5 to 0.5)); higher = stronger / more preferred TF binding. The conditions noted are these: protein concentration: 100 nM; construct: GST-full length. In short, it runs like this: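 Universal all-10-mer Agilent arrays, double-stranded by primer extension on fresh or once-stripped slides, were probed with about 100-200 nM GST-tagged yeast transcription factors made by PURExpress. Fluorescent anti-GST detected bound protein, and masliner normalised the scans. E-scores from the Universal PBM Analysis Suite were given to each ungapped eight-base word pooled with its reverse complement.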
For CATATTAC, the “PBM E-score” value was 0.121.

Consider CCTATGTA, for which the “PBM E-score” value was -0.171.

Take AGCAGGTA: the “PBM E-score” value is -0.147. The result for GTATAGAC reads -0.0957.

As for ACCAAGGC, the “PBM E-score” value is -0.0881. The result for CAAACCGG reads 0.206. The figure for CGCAAACG is 0.0372. The figure for CGGCGCTA is 0.162. As for GCAGATGA, the “PBM E-score” value is -0.138. The figure for ATTAAATA is 0.22; for CCTGCAAC it is -0.075; for ATACAGGC it is -0.194. The result for ATTATCAG reads 0.0899. The result for AGATGTAC reads -0.127; that for AGGGTAAC, -0.294. With CGATGAGA, the “PBM E-score” value is 0.0795. The figure for ATCACACC is 0.0117; for CATGTGGA it is -0.173; for GGGCTCAC it is -0.31.

With ACCAGGTC, the “PBM E-score” value was -0.132.

For the sequence AGACGAAC, the “PBM E-score” value stood at 0.0501. Regarding CTCTACAC, the “PBM E-score” value is -0.181. The result for ATCCGGGA reads 0.258; that for GCTCTGAA, -0.0396. As for AGGATATC, the “PBM E-score” value was -0.0241. The figure for AGTGTCCG is 0.176; for ATAGTCAC it is -0.0148.

As to AAGGTCCC, the “PBM E-score” value was -0.242. Consider ACGGTAAC, for which the “PBM E-score” value came to 0.221. For the sequence ACGAATCT, the “PBM E-score” value was 0.0333.

As to GCCACAAA, the “PBM E-score” value was found to be 0.0617. The figure for CTTGATCA is 0.119; for CAGACCGA it is 0.155; for CGATTCAA it is -0.0538.

As to CACCGAAA, the “PBM E-score” value was 0.25. As for ACCAATTG, the “PBM E-score” value was -0.0255. The figure for ATCTGCGG is 0.165.

Take CTCACAGC: the “PBM E-score” value was -0.0338. The figure for AAATCCTA is 0.0691; for AGAACCGG it is 0.233. As for ATCCCCAG, the “PBM E-score” value is -0.29. The result for ACGCCTCC reads -0.197; that for AGGGGGAG, -0.331. The result for AGCCGTTG reads 0.13; that for ACTGAAGA, 0.114.

With ATCTGAAT, the “PBM E-score” value was found to be 0.0452. In the case of CCCGGCGC, the “PBM E-score” value came to 0.216. Turning to CCGTTGCC, the “PBM E-score” value turned out to be 0.18. The result for AGAGATTA reads -0.0367; that for ACCCGACG, 0.0621. The figure for CATAGGAG is -0.166. The result for GCGCCTAA reads 0.0401; that for ACTAACCA, 0.107; that for TAAGGCAA, -0.0253. With ATACCTTA, the “PBM E-score” value was found to be 0.0942. TCAGGCCA: the “PBM E-score” value was -0.0244. On to AGTGTTAG, for which the “PBM E-score” value was found to be 0.0348. The result for AGTCATTG reads -0.247. The figure for CCACGGCA is 0.0784; for GGCTGTCA it is -0.0849. The result for ACAGGGAG reads -0.133.

As to CCGAACTC, the “PBM E-score” value came to 0.246. The result for AGTGCAGG reads -0.139.

AGATACCA: the “PBM E-score” value was 0.109. The result for AGCGGAAA reads 0.27. The result for ACTCTCAT reads -0.0795; that for CCATGTAA, -0.0912. The result for ACAATTTA reads 0.102. With AACGCACG, the “PBM E-score” value was 0.181.

Turning to GAATCTGA, the “PBM E-score” value is -0.0993. The figure for TCACACAA is -0.058.

For CTCCAGGC, the “PBM E-score” value was -0.273. The result for CTTGCGGC reads 0.121; that for AATCCCGG, 0.284; that for GGCAGCAA, -0.0355. On to ATGCGACA, for which the “PBM E-score” value is -0.0955. The figure for ACACCCTC is -0.27. The result for GGCCGGCC reads 0.384; that for GCGAACGA, 0.0149; that for CTTCTGCA, 0.0161. The figure for CATGGTGG is -0.153; for CGTATTCC it is 0.184. For the sequence GCAGACCC, the “PBM E-score” value is -0.103. The figure for AATCTTAC is 0.206; for AGTCCATA it is -0.0327.

Consider CGGCAGCC, for which the “PBM E-score” value came out at 0.223. The result for GATCCGAC reads 0.0808. The result for ACTCGGCT reads 0.209. The result for AAGTTTGA reads 0.0561; that for CACGAGCC, -0.0693; that for AGTCTTAC, -0.143. As to ACGTCCGA, the “PBM E-score” value is 0.0275. The result for AGCTTGCA reads -0.0112.

Regarding AAGATGTC, the “PBM E-score” value was -0.161.
